Source: PMC1090571
No constants are given. Whether binding was seen depends on the method and setting. Some binding calls cover weakened binding; strength is not graded here.

Chains of the proteins cited; added tags and fusions are not shown. Residues count along the entry.
UniProt P14210, residues 32-728: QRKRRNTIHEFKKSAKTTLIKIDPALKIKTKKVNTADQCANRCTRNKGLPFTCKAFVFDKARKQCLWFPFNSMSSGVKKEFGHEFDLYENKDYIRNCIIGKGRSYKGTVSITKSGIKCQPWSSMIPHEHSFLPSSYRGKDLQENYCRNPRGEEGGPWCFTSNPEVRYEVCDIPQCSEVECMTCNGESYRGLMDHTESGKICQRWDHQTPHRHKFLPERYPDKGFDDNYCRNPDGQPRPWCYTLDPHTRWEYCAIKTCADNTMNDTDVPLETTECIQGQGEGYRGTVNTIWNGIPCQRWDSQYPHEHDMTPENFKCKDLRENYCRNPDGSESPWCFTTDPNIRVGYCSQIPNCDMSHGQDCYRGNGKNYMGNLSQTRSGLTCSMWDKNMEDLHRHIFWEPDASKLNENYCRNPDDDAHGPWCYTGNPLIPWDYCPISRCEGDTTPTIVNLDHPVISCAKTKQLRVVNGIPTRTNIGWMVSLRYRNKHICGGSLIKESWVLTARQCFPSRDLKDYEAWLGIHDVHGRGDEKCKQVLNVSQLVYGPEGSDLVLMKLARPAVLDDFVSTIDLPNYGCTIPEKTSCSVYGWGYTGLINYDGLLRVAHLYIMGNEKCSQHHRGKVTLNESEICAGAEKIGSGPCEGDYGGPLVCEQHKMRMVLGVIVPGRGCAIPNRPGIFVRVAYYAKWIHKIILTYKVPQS

Tests used:
[1] = molecular target: recombinant human HGF receptor (c-Met)/Fc chimera (human) (UniProt P08581); assay: SPR; c-Met/Fc chimera amine-coupled to a CM5 chip (Biacore 2000 / Biacore X), reconstituted faecal samples with protease inhibitor injected, 25°C; reference flow cell without ligand subtracted; only the target purified
[2] = molecular target: recombinant human HGF receptor (c-Met)/Fc chimera (human) (UniProt P08581); assay: affinity chromatography with SDS-PAGE; Hi-trap column immobilised with recombinant human c-Met/Fc chimera; reconstituted faeces applied; purified material run on SDS-PAGE; only the target purified
[3] = molecular target: recombinant human HGF receptor (c-Met)/Fc chimera (human) (UniProt P08581); assay: SPR; recombinant HGF examined on immobilised c-met receptor; data not shown; both purified

Substance | binding [1] | binding [2] | binding [3]
Hepatocyte growth factor (HGF) in reconstituted faecal samples of patients (from UniProt P14210 32-728) (ligand) | binds | binds | –
recombinant HGF (from UniProt P14210 32-728) (ligand) | – | – | binds
